Assay results as given in paper PMC4121317.

Target: T1, Cul4 (S. pombe) (UniProt O14122)
T1 sequence: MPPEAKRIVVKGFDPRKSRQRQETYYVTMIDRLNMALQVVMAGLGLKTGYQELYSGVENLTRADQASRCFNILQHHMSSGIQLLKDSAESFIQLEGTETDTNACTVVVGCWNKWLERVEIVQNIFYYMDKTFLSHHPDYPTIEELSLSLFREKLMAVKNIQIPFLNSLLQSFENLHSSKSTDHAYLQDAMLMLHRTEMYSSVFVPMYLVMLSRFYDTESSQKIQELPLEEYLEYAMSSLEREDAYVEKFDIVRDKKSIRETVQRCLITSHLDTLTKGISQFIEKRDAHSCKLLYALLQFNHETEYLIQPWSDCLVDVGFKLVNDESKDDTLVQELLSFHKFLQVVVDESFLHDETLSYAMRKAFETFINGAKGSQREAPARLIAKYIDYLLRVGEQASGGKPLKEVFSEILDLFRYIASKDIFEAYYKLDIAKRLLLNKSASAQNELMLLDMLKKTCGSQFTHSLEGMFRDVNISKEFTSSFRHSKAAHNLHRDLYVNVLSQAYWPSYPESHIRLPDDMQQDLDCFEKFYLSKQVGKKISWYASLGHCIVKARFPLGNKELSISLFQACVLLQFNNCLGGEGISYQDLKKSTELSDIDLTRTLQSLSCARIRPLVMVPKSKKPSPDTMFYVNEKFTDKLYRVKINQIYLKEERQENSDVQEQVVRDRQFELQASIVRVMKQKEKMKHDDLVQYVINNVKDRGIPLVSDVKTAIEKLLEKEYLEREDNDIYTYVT
Assay: two-hybrid; targeted yeast two-hybrid, GAL4 binding domain and activation domain fusions (Clontech Matchmaker system); interaction read as growth on -Leu, -Trp, -His, -Ade plates

Row | binding | Substance
1 | no binding | RFTS domain of Raf2 alone (from UniProt O74560) (domain or fragment)
2 | no binding | zinc finger domain of Raf2 alone (S. pombe) (domain or fragment)

Results are given in words; binding and its absence hold for the method and conditions named.
